## Library screening results

Source: ChEMBL document CHEMBL3988442, “University of Dundee, Small-Polar-MMV Screening Library” (2021).

Mtb growth Cornell: 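Whole-cell assay for inhibitors of Mycobacterium tuberculosis growth, labelled Cornell in the record; the read-out is not stated. The concentration is filed as 10 mM, unlikely as a test dose, so the dose is not known. The record gives no direction; compounds strong in two other growth screens of this library score well above the rest, so higher reads as stronger inhibition. About 53,000 compounds were tested under these conditions; 1.7% (about 900) showed 50% or more at least once.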
Mtb heat-shock: 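Assay on Mycobacterium tuberculosis, filed only as a heat shock assay from Cornell; the read-out is not stated. The concentration is filed as 10 mM, unlikely as a test dose, so the dose is not known. The record gives no direction; compounds that gave an IC50 in retests scored well above the rest, so higher reads as stronger inhibition. Size under these conditions: about 69,000 compounds, about 930 of them at 50% or above in at least one test.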

Each number is a percent effect as filed.
The record does not define 0% and 100%; most values in the screen are far below 50% and negative numbers occur (in some assays of this library far below -100).
The compounds are a random part of those screened.
A dash means the value is not listed here; it may have been measured.

| SMILES | Mtb growth Cornell | Mtb heat-shock |
|---|---|---|
| `COc1ccc(CNC[C@H]2COCc3nc4cc(F)ccc4n32)cn1` | - | -6.81% |
| `NC(=O)c1ccc(CNC(=O)Nc2cn[nH]c2)cc1` | - | -17.84% |
| `CCOC(=O)CNC(=O)NCc1cccn1Cc1cccc(C)c1` | 27.43% | 8.703% |
| `CC(C)C(N)CNS(=O)(=O)Cc1cccc2cccnc12.Cl` (configuration not stated) | - | -17.8% |
| `Cc1nnc(CN2CCCC2c2ccsc2)o1` (configuration not stated) | 14.43% | 12.06% |
| `CN(CCn1nc2ccccn2c1=O)CC(=O)N(C)C1CCCCC1` | 8.362% | -5.359% |
| `CCC(CCNCc1cnc(C2CCC2)s1)N1CCCC1=O` (configuration not stated) | -3.173% | -24.22% |
| `CN(Cc1nc(-c2cccnc2)no1)C(=O)c1cnc2n1CCCC2` | 0.6365% | -12.07% |
| `O=C1N(c2ccccc2)Cc2nc(=O)[nH]n21` | - | -9.391% |
| `CC1(C)CC(C(=O)N2CCC3(CCC(=O)N(C4CC4)C3)CC2)CCO1` (configuration not stated) | - | -109.7% |
| `OCCc1cc(C2CCCN2c2ncccn2)n[nH]1` (configuration not stated) | 5.746% | 2.625% |
| `[H][C@@]12CCN(C[C@@H]1CC)[C@@H](CNC(=O)Nc1cccc(C(F)(F)F)c1)C2` | - | 4.956% |
| `CC(C)N(C(=O)Cn1nnnc1CCc1ccccc1)C(C)C` | -7.739% | -33.43% |
| `[H][C@]12CC[C@](O)(CC1)C(CN1CCOCC1)N2C(=O)C1CCC1` (some centres not stated) | -31.99% | -21.22% |
| `Cc1nc2[nH]cnc(Nc3cnn(C)c3)c-2n1` | 0.4174% | 0.1947% |
| `O=C1CC2(CCN(S(=O)(=O)c3cccs3)C2)CN1c1cccc(F)c1` (configuration not stated) | 14.42% | -7.501% |
| `CS(=O)(=O)N1CCC2(CC1)COC(COc1cccnc1)C2.O=C(O)C(F)(F)F` (configuration not stated) | 20.63% | -22.16% |
| `O=C(O)C(F)(F)F.O=C(O)C(F)(F)F.[H][C@@]12CC(COc3ccccn3)C[C@@]1([H])N(Cc1cccc(C)n1)CCO2` (some centres not stated) | 6.394% | 3.656% |
| `Cc1ccc(CN2CC(C(=O)NCC3CC3)C3(CCOCC3)C2)s1.O=C(O)C(F)(F)F` (configuration not stated) | 36.38% | -29.29% |
| `COC(=O)C(C)N1CCCc2cc(OC)ccc2C1` (configuration not stated) | 0.6302% | -1.629% |
| `Cc1nc(CN(C)C(=O)NC(C)c2ccc3c(c2)OCCO3)cs1` (configuration not stated) | -57.61% | -12.92% |
| `OC1CCN(c2cnnc3ccccc23)CC1` | -36.09% | -1.592% |
| `N#Cc1cccc(NC(=O)N(CC(F)F)C2CC2)c1` | -15.16% | 6.116% |
| `COc1ccc(OC)c(C(=O)N2CCC(Nc3cccnc3)CC2)c1` | 21.05% | -7.195% |
| `Cc1ccc2[nH]c(CN(C)Cc3n[nH]c4c3CCC4)nc2c1` | 5.851% | 98.03% |
| `CCn1cc(C(=O)NC2CCN(S(C)(=O)=O)CC2)c2ccccc21` | -4.018% | 3.007% |
| `COc1cc(C)nc(N2CCN(C(=O)CN(C)C(C)C)CC2)n1` | - | 7.956% |
| `COc1cccc(CN(C)C(=O)CCC(=O)c2ccccc2)c1OC` | 8.094% | 3.854% |
| `CCCn1ncc(-c2ccnc(NC3CCSC3)n2)c1C` (configuration not stated) | -4.809% | -0.2299% |
| `CCn1cc(CN2CCC(N3CCC(O)CC3)CC2)cc1C#N` | 18.54% | -30.21% |
| `CCC(O)CN1CCN(C(=O)c2csc(COC)n2)CC1` (configuration not stated) | 6.077% | 13.85% |
| `O=C(NC1CCS(=O)(=O)c2ccccc21)c1sccc1C1CC1` (configuration not stated) | 39.25% | -8.854% |
| `CCOc1ccccc1CNC(=O)c1cnn(CC)c1C(F)(F)F` | 4.777% | 4.775% |
| `Cc1ccccc1CC(=O)N1CCN(C2CCOC2=O)CC1` (configuration not stated) | 7.089% | 6.828% |
| `COc1ccccc1C1(C(=O)N2CCN(CC(C)O)CC2)CC1` (configuration not stated) | 36.42% | 2.11% |
| `O=C1CCC2(CCCN(C(=O)c3ccoc3)C2)CN1Cc1ccncc1` (configuration not stated) | -4.556% | -3.415% |
| `CN(C)[C@@H]1CN(Cc2ccccn2)C[C@H]1c1cn(C)c2ccccc12.Cl` | 54.37% | -15.03% |
| `CCn1cnnc1CNC(=O)N1CCOC(c2ccccc2Cl)C1` (configuration not stated) | - | -122.9% |
| `CC(=O)NCCNC(=O)CN1CCCC(Cn2cncn2)C1` (configuration not stated) | -7.079% | -11.51% |
| `CS(=O)(=O)N(Cc1ccon1)c1ccc2c(c1)OCO2` | - | -8.876% |
| `O=C1CC2(CCCCN2C(=O)c2ccsc2)CN1CC1CC1` (configuration not stated) | -3.361% | -22.86% |
| `O=C(O)c1ccc(F)c(S(=O)(=O)N2CCOc3ccccc32)c1` | - | -5.017% |
| `CS(=O)(=O)c1nnc(NC(=O)CCc2cccs2)[nH]1` | -23.74% | -10.83% |
| `Cc1nnc(SC2CCN(c3sccc3C#N)C2=O)[nH]1` (configuration not stated) | 14.6% | 3.408% |
| `COC(=O)c1cccc(S(=O)(=O)NC(=O)CC2CCCC2)c1` | -4.157% | -18.83% |
| `[H][C@@]12CCN(C(=O)C3CC3)C[C@]1([H])OCCN(Cc1ccc(OC)cc1)C2=O` | 0.09981% | -12.19% |
| `O=C(O)C(F)(F)F.O=C(O)C(F)(F)F.[H][C@@]12C[C@@H](C(=O)NC)N(C)[C@]1([H])CN(Cc1nccs1)C2` | 15.33% | -19.94% |
| `CC(C)C(=O)NC1CCCN(C(=O)c2ccc(O)c(Cl)c2)C1` (configuration not stated) | -16.1% | 2.506% |
| `CCOc1c(Br)cc(CNC(C)c2nnc3n2CCC3)cc1OC` (configuration not stated) | -22.86% | -4.479% |
| `Cc1cc(C)c(Cn2cncn2)cc1CN1CCC(CN)C1` (configuration not stated) | -6.4% | 8.21% |
| `O=C(O)C(F)(F)F.[H][C@@]12CCN(C(=O)C(C)C)CC[C@]1(C(=O)N1CCOCC1)CCN2C` | -25.99% | -4.383% |
| `CC(=O)NC1CCCN(c2ccc(C#N)cc2C(F)(F)F)C1` (configuration not stated) | - | -42% |
| `COc1ccc(-n2ncc(C(C)NC3Cc4ccccc4C3)c2C)cc1` (configuration not stated) | 9.646% | 5.907% |
| `O=C(O)C(F)(F)F.[H][C@@]12CCN(CC(=O)N(C)C)C(=O)[C@@]1([H])CN(S(C)(=O)=O)C2` | - | -5.927% |
| `O=S(=O)(Cc1ccccc1Cl)CC(O)CO` (configuration not stated) | 37.41% | 2.723% |
| `CN(CC(=O)NS(=O)(=O)c1cccs1)Cc1ccccc1` | -34.51% | -17.44% |
| `CC(O)CN1CCC(CNCc2ccccc2Cl)CC1` (configuration not stated) | - | 24.29% |
| `Cn1nc(CO)c2c1CCN(c1ncnc3c1CCNC3)C2` | 0% | 11.23% |
| `CCCN1Cc2ccccc2CC1C(=O)NC` (configuration not stated) | - | -1.764% |
| `CN(C)c1nccc(C2CCN(c3ncccn3)CC2)n1` | 38.24% | 17.37% |
| `[H][C@@]12CNC(=O)N1CCN(Cc1ccnc3ccccc13)C2` | -7.628% | -4.927% |
| `CCOc1cccc2c1OCC(C(=O)NS(=O)(=O)c1ccc(Cl)cc1)=C2` | 104.7% | 4.541% |
| `CCOCC1CN(C(=O)C2=CCCC2)Cc2cnn(CC)c21` (configuration not stated) | -15.62% | -0.944% |

7 of the entries, repeated:

SMILES,Mtb growth Cornell,Mtb heat-shock
CC(=O)NCCNC(=O)CN1CCCC(Cn2cncn2)C1 (configuration not stated),-7.079%,-11.51%
O=C(NC1CCS(=O)(=O)c2ccccc21)c1sccc1C1CC1 (configuration not stated),39.25%,-8.854%
CC(C)N(C(=O)Cn1nnnc1CCc1ccccc1)C(C)C,-7.739%,-33.43%
O=C(O)C(F)(F)F.O=C(O)C(F)(F)F.[H][C@@]12C[C@@H](C(=O)NC)N(C)[C@]1([H])CN(Cc1nccs1)C2,15.33%,-19.94%
CCn1cc(CN2CCC(N3CCC(O)CC3)CC2)cc1C#N,18.54%,-30.21%
CCC(O)CN1CCN(C(=O)c2csc(COC)n2)CC1 (configuration not stated),6.077%,13.85%
Cc1ccccc1CC(=O)N1CCN(C2CCOC2=O)CC1 (configuration not stated),7.089%,6.828%